## Library screening results

By UniProt entry, the sequences of proteins in these tests, tags left out.
UniProt E9BF75, entry or part of it: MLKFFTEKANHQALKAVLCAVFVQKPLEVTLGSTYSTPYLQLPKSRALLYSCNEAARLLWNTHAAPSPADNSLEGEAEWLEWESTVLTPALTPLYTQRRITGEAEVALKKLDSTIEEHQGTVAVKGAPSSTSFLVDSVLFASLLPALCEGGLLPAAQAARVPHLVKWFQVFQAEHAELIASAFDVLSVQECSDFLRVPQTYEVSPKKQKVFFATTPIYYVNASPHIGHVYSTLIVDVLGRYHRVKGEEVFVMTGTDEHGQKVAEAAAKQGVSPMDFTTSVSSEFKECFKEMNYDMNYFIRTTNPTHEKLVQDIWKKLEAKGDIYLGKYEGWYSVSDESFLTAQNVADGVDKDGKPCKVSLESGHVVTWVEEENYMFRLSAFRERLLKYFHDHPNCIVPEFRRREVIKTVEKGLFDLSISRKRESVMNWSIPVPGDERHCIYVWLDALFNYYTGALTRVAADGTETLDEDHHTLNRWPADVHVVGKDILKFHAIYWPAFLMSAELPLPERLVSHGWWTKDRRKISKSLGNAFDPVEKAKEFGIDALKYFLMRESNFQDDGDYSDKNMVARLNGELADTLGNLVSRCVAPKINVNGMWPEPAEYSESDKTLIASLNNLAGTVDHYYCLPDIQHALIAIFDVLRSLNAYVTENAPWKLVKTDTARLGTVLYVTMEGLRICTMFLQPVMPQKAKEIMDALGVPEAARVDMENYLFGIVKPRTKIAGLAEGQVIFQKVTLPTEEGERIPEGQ

Source: ChEMBL document CHEMBL3988442, “University of Dundee, Small-Polar-MMV Screening Library” (2021).

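Primary screen of methionyl-tRNA synthetase; the read-out is not stated. Target: Methionyl-tRNA synthetase (putative), Leishmania donovani (UniProt E9BF75). The test concentration is not given. Values are per cent inhibition. Size under these conditions: about 68,000 compounds, about 24 of them at 50% or above in at least one test.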

All values are in %. The controls that fix the scale are not given in the record; negative values are as filed. The compounds are a random part of those screened.

CSc1ncc(CN2CC(Oc3c(C)cccc3C)C2)cn1 gave 18.4%.
O=C(c1cccc(Cl)c1)N1CC[C@H]2[C@H]1CCN2CC1CCOCC1 gave 8.014%.
CN(C)C(=O)c1nc(CN2CC(Cc3ccccc3)CC2=O)no1 (stereo not drawn) gave 3.621%.
CN(Cc1n[nH]c2c1CCCC2)C(=O)c1cccc(CCC(C)(C)O)c1 gave 7.821%.
O=C1CCOC[C@]2(CN(Cc3ccccc3)C[C@H]2c2cccc(F)c2)N1 gave 12.26%.
Cc1noc(NC(=O)c2ccccc2)n1 gave 23.43%.
CC(=O)N1C[C@@H](c2ccsc2)[C@@H]2CN(Cc3ccccc3)CC[C@@H]21 gave 22.73%.
Cc1cc(C)n(C2CN(CC(=O)NCC(C)(C)N3CCOCC3)C2)n1 gave 20.14%.
CC(C)NS(=O)(=O)c1cc(C(=O)O)cc(-c2ccccc2F)c1 gave 10.68%.
CCCC(=O)N(C)C(c1cccc(F)c1)c1ccccn1 (stereo not drawn) gave 4.545%.
COCCN1CCCC(O)(CN2CCN(Cc3ccncc3)CC2)C1=O (stereo not drawn) gave 13.19%.
Cc1cc(C)c(C(=O)N2CCOC(CCN(C)C)C2)o1 (stereo not drawn) gave 4.569%.
CN1C[C@@H]2CN(C(=O)C3CC=CC3)C[C@@H]2C1=O gave 1.031%.
CN1CCN(C2COC3(CCN(Cc4ccsc4)CC3)C2)CC1 (stereo not drawn) gave 10.95%.
O=C(NCc1cccs1)[C@H]1CO[C@H]2CCN(C3CCCC3)C[C@H]2C1 gave 11.89%.
CC(C)CN1CCNC(=O)C12CCN(S(=O)(=O)c1ccc(F)cc1)CC2 gave 10%.
c1coc(-c2[nH]c3ncccc3c2CN2CCCOCC2)c1 gave 15.76%.
Cc1nc(C2CCNCC2)cc(N2CCCC(C(=O)NCCCO)C2)n1 (stereo not drawn) gave -0.3484%.
O=C(c1ccc[nH]1)N1CC[C@@H](OCC2CC2)[C@@H]1Cc1cccnc1 gave 4.235%.
O=C(c1cccc(S(=O)(=O)NC[C@@H]2C[C@H](F)CN2)c1)N1CCCCC1 gave 7.216%.
O=C1CC(NS(=O)(=O)c2ccc(Cl)cc2)CN1 (stereo not drawn) gave 7.887%.
CCc1nc(CC)n(CC(=O)NCc2cccc(C)c2)n1 gave 20.72%.
CC(OCC1CC1)C(=O)Nc1nccn1Cc1ccccc1 (stereo not drawn) gave 6.383%.
CNC(=O)[C@@H]1CCO[C@@H]2CCN(C3CCOCC3)C[C@@H]21 gave 16.3%.
Cc1nc2n(n1)CC(NCc1nc3ccccc3o1)CC2 (stereo not drawn) gave 7.419%.
Cc1cc2ccccc2n1CC(=O)N[C@@H](C)C(=O)O gave -13.04%.
O=C(c1ccc[nH]1)N1CCCn2c(CNC3CCC3)nnc2C1 gave 15.5%.
Cn1c(=O)oc2ccc(NC(=O)N3CCOCC3)cc21 gave 2.482%.
COCC(=O)NCc1ccc(-c2ncncc2C(=O)N(C)C)cc1 gave 10.47%.
Cc1ncc(CNC2CCCN(Cc3noc(C4CC4)n3)C2)s1 (stereo not drawn) gave 12.24%.
COc1cccc(CN(Cc2ccco2)Cc2[nH]cnc2C)c1 gave 5.346%.
Cc1nc(C2CCCN2Cc2cc(Cl)c3c(c2)OCCCO3)no1 (stereo not drawn) gave 23.49%.